Publication PMC9295057
No constants are given. Whether binding was seen depends on the method and setting. Binding seen in cells or lysates may run through a third protein.

Protein sequences, listed by entry. Tags and fused reporters are not part of them. Residues count along the entry.
UniProt Q03405, residues 23-305: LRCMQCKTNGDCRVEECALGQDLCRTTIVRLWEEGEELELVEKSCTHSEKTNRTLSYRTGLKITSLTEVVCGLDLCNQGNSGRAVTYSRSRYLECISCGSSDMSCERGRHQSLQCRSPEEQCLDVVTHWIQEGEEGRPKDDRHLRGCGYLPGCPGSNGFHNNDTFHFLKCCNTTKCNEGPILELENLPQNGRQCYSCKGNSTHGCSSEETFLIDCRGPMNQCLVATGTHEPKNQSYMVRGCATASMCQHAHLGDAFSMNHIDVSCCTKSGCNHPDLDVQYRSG
UniProt Q9NQB0: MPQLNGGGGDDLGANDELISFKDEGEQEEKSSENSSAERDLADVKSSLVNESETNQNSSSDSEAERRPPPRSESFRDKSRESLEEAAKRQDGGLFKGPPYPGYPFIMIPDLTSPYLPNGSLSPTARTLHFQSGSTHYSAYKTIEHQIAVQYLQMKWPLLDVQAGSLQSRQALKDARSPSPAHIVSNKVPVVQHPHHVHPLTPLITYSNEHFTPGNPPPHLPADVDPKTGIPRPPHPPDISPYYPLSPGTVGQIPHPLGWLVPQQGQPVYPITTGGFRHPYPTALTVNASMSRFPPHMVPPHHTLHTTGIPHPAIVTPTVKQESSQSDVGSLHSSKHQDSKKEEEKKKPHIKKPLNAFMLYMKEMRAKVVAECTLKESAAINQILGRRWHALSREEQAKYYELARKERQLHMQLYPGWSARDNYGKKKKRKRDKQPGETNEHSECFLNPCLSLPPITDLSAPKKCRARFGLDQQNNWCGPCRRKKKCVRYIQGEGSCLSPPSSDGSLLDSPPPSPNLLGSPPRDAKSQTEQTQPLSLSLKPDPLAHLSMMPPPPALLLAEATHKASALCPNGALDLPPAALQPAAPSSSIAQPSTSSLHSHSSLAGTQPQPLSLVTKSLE

Target: urokinase-type plasminogen activator receptor (PLAUR) (UniProt Q03405)
Test: co-IP; lysates incubated with Flag affinity beads; interacting proteins detected by western blot; cells and Flag-tagged partner not stated

With “Transcription Factor 7 Like 2 (TCF7L2) (from UniProt Q9NQB0 1-619)” the binding was “no binding”.
